This is an account of results in publication PMC10216487.

Amino acid sequences for entries named in this document (tags omitted).
UniProt Q96RK0: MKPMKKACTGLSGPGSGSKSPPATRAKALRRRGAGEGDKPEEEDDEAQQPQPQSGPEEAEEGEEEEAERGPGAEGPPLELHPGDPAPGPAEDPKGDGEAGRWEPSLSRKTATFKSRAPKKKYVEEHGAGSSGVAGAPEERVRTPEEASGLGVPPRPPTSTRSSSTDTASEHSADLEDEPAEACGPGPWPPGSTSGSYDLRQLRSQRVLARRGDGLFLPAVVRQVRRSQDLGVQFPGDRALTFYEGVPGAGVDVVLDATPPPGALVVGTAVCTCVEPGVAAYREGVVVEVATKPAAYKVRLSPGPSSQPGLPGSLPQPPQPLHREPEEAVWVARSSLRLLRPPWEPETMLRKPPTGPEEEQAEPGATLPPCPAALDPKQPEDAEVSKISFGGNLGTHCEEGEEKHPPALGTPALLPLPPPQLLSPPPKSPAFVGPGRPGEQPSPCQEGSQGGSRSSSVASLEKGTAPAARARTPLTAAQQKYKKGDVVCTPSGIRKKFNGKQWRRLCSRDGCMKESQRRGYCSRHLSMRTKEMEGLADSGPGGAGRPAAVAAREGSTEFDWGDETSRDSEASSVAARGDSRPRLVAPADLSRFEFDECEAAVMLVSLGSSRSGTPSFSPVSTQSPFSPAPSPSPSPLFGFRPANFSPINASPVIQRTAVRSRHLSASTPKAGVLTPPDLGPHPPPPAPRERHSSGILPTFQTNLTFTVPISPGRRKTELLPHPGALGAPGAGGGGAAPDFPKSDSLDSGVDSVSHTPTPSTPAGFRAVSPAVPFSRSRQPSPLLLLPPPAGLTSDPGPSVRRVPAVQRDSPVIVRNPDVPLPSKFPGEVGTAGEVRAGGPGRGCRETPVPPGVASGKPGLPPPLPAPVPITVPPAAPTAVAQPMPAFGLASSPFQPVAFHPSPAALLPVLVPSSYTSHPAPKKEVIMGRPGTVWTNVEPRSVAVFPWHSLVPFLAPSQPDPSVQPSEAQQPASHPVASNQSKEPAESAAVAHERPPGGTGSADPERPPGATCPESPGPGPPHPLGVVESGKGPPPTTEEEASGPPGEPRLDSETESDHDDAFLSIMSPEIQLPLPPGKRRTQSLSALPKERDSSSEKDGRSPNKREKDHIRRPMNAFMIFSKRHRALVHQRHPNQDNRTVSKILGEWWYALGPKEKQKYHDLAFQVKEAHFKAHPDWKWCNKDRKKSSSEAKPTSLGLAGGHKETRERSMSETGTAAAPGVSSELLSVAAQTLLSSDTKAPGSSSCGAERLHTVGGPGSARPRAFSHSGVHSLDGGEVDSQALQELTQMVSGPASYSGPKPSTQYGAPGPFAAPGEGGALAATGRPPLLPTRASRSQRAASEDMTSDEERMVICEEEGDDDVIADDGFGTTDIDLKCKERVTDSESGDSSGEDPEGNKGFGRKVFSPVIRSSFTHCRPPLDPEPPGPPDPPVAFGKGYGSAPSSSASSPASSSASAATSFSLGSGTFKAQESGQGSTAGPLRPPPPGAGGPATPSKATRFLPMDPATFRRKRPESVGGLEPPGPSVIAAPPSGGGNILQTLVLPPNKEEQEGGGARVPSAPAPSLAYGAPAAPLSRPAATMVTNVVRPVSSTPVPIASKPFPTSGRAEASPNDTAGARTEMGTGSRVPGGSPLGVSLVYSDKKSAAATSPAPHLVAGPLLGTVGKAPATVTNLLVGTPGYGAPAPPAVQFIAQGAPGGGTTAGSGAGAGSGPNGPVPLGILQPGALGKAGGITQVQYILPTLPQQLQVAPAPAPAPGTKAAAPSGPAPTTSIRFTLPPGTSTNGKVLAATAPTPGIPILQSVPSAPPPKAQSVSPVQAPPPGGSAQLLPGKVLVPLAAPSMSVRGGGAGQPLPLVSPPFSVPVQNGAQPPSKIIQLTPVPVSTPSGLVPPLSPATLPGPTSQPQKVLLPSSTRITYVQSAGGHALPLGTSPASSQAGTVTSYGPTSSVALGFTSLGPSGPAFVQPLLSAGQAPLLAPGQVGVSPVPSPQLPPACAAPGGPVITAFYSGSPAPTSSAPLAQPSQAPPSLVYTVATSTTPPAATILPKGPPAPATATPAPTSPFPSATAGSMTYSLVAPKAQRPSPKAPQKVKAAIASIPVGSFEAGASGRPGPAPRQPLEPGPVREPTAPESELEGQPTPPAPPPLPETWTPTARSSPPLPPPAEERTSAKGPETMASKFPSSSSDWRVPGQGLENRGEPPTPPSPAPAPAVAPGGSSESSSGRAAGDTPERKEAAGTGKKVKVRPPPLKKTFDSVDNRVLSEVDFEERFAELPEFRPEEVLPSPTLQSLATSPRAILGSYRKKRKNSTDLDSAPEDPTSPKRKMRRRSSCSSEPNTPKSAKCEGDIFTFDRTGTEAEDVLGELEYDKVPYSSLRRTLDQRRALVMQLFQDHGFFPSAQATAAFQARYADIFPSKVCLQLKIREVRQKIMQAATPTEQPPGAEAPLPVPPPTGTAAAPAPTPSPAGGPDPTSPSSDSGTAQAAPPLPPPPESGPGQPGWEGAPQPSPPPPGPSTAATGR
UniProt P13010: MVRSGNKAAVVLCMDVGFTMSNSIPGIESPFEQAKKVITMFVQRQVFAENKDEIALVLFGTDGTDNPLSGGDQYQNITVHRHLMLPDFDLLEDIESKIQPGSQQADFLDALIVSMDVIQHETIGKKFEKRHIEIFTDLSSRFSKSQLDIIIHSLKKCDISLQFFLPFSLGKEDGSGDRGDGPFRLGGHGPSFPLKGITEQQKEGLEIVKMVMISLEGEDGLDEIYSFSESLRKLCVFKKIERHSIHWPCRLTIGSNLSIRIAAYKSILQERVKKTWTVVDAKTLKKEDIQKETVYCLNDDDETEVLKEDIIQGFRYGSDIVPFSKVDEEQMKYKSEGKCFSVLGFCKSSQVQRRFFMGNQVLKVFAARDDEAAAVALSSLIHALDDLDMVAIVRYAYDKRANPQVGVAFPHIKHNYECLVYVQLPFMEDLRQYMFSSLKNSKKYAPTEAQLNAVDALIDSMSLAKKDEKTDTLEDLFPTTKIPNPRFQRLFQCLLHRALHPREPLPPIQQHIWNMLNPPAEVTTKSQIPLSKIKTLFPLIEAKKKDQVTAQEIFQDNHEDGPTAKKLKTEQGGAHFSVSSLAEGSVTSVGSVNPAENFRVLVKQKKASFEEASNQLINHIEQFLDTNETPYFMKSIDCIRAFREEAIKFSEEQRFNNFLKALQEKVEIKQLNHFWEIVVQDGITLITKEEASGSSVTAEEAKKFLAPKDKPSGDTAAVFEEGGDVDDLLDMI
UniProt P11387: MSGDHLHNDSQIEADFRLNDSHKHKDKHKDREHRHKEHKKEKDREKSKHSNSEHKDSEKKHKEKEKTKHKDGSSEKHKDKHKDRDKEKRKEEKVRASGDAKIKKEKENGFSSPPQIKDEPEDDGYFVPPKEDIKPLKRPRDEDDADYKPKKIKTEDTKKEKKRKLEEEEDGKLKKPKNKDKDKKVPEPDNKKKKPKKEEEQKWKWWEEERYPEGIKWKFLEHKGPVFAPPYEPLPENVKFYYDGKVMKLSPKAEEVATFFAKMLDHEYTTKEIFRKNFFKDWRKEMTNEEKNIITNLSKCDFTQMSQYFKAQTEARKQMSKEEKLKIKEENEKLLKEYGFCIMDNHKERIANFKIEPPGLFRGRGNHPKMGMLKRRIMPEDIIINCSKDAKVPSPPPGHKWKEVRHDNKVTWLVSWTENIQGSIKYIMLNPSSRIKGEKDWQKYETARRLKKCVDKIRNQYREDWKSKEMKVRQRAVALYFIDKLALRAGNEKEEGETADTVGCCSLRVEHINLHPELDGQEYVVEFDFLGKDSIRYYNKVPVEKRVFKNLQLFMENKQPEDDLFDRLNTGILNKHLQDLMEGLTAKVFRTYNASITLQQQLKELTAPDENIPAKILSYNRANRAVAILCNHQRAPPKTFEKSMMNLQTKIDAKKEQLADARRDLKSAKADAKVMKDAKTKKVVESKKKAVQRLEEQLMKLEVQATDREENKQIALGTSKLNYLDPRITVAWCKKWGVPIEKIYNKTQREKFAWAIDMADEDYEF
UniProt P17844: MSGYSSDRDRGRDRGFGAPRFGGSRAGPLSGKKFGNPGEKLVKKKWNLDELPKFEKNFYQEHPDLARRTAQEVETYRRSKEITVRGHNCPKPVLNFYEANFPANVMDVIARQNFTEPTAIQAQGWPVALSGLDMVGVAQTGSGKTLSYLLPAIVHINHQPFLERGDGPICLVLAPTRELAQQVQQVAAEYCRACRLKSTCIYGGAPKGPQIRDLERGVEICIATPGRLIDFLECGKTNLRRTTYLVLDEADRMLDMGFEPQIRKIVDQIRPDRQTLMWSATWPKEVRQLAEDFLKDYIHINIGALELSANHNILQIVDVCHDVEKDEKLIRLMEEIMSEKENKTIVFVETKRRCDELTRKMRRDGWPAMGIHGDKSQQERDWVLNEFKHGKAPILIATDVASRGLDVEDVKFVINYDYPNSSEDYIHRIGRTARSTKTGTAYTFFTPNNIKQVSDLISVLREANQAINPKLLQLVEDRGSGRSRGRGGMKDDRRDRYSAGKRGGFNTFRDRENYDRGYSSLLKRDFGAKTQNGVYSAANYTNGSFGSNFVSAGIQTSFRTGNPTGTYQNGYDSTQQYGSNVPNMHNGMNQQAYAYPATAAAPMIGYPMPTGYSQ
UniProt P12956: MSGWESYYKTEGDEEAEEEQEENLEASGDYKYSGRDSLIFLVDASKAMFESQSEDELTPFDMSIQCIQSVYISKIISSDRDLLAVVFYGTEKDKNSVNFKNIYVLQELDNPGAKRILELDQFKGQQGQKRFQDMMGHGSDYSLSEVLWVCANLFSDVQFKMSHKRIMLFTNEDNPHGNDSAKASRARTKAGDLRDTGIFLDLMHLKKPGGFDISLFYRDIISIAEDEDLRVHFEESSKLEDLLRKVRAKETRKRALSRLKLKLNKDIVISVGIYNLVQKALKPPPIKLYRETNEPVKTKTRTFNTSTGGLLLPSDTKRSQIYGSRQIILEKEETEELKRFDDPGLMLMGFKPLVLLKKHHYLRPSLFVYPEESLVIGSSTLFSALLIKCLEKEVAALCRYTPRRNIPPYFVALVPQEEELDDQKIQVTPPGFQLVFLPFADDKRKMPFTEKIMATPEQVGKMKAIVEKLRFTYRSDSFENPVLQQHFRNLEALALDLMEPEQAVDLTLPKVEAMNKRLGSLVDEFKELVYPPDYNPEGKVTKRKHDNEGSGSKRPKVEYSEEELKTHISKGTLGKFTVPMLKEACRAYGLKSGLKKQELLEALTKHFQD
UniProt Q5SSJ5: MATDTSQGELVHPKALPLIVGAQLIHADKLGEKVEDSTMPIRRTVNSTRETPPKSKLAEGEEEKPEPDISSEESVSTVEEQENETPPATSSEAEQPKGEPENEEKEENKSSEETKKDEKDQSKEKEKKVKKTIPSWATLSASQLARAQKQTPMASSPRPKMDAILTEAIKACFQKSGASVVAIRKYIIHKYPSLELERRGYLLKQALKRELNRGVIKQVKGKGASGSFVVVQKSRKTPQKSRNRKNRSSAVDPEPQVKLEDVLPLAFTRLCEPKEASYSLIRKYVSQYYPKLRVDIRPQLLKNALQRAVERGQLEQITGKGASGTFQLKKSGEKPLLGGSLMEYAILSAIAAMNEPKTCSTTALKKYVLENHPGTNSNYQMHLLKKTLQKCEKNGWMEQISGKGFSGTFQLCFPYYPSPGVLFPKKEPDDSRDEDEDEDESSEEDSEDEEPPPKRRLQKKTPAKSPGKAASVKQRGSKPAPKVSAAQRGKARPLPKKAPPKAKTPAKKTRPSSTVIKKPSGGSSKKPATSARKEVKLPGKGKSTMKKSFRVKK
UniProt O00571: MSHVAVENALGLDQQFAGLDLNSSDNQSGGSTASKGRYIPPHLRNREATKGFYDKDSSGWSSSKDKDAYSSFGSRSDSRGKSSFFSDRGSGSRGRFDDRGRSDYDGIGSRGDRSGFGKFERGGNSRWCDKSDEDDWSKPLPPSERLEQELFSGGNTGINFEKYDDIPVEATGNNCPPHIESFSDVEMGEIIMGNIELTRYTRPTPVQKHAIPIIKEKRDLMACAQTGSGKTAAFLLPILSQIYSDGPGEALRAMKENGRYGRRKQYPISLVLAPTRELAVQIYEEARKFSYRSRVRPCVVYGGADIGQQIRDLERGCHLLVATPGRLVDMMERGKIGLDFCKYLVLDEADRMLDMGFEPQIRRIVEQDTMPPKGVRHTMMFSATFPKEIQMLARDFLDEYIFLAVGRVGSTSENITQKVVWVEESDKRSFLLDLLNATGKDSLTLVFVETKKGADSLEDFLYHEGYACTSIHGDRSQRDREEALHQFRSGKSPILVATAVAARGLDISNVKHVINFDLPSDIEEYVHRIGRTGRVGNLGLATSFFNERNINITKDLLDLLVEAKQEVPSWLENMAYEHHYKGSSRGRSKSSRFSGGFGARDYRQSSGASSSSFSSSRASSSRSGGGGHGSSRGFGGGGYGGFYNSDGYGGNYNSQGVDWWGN

Results are given in words; binding and its absence hold for the method and conditions named. In cells and extracts the contact can be indirect. Here binding means that the protein was enriched with, or labelled near, the bait; the list need not be complete.

Assay [1] deals with Capicua (CIC), endogenous (human (endogenous in HEK293A and NHA)) (UniProt Q96RK0). Description: affinity purification with mass spectrometry; nuclear fractions of HEK293A (HEK-CIC^WT) cells; IP with anti-endogenous CIC antibody (three replicates) or anti-Myc for stably expressed N-Myc-CIC-S (one experiment); LC-MS/MS; candidates identified in at least two of four replicates.
Assay [2] shares this target. Description: affinity purification with mass spectrometry; nuclear fractions of NHA (NHA-CIC^WT) cells; CIC IP in triplicate with matched IgG controls; 'trigger peptides' used to enhance MS sensitivity for a subset of proteins.

As to XRCC5 (from UniProt P13010 1-732), the binding entry in assay [1] and in assay [2] was “binds” in each case.
Turning to DNM1L (from UniProt O00429 1-736), the binding entry in assay [1] and in assay [2] was “binds” throughout.
For HNRNPK (from UniProt P61978 1-463), the binding result in assay [1] and in assay [2] was “binds” throughout.
Take TOP1 (from UniProt P11387 1-765): the binding result in assay [1] and in assay [2] was “binds” each time.
On to G3BP1 (from UniProt Q13283 1-466), for which the binding entry in assay [1] and in assay [2] was “binds” each time.
For the molecule SMARCC2 (from UniProt Q8TAQ2 1-1214), the binding result in assay [1] and in assay [2] was “binds” each time.
For DDX5 (from UniProt P17844 1-614), the binding entry in assay [1] and in assay [2] was “binds” throughout.
PRKDC (from UniProt P78527 1-4128): the binding entry in assay [1] and in assay [2] was “binds” each time.
Regarding NPM1 (from UniProt P06748 1-294), the binding entry in assay [1] and in assay [2] was “binds” each time.
As for SMARCA2 (from UniProt P51531 1-1590), the binding result in assay [1] and in assay [2] was “binds” in each case.
For the molecule XRCC6 (from UniProt P12956 1-609), the binding entry in assay [1] and in assay [2] was “binds” throughout.
In the case of TTN (from UniProt Q8WZ42 1-34350), the binding entry in assay [1] and in assay [2] was “binds” each time.
As for SVIL (from UniProt O95425 1-2214), the binding result in assay [1] is recorded as “binds”.
As to DDX21 (from UniProt Q9NR30 1-783), the binding result in assay [1] and in assay [2] was “binds” throughout.
In the case of RUVBL1 (from UniProt Q9Y265 1-456), the binding result in assay [1] and in assay [2] was “binds” each time.
With HP1BP3 (from UniProt Q5SSJ5 1-553), the binding entry in assay [1] and in assay [2] was “binds” in each case.
With MECP2 (from UniProt P51608 1-486), the binding entry in assay [1] and in assay [2] was “binds” throughout.
YLPM1 (from UniProt P49750 1-2146): the binding result in assay [1] and in assay [2] was “binds” in each case.
Regarding CDC5L (from UniProt Q99459 1-802), the binding entry in assay [1] and in assay [2] was “binds” each time.
Turning to SMARCA4 (from UniProt P51532 1-1647), the binding entry in assay [1] and in assay [2] was “binds” in each case.
In the case of DDX3X (from UniProt O00571 1-662), the binding entry in assay [1] and in assay [2] was “binds” each time.
In the case of SMARCA5 (from UniProt O60264 1-1052), the binding entry in assay [1] and in assay [2] was “binds” throughout.
Regarding MKI67 (from UniProt P46013 1-3256), the binding entry in assay [1] and in assay [2] was “binds” in each case.
In the case of TRIM28 (from UniProt Q13263 1-835), the binding result in assay [1] and in assay [2] was “binds” throughout.
In the case of SMARCC1 (from UniProt Q92922 1-1105), the binding entry in assay [1] and in assay [2] was “binds” each time.

B1: ATXN2L (protein, UniProt Q8WWM7 1-1075)
chain: MLKPQPLQQPSQPQQPPPTQQAVARRPPGGTSPPNGGLPGPLATSAAPPGPPAAASPCLGPVAAAGSGLRRGAEGILAPQPPPPQQHQERPGAAAIGSARGQSTGKGPPQSPVFEGVYNNSRMLHFLTAVVGSTCDVKVKNGTTYEGIFKTLSSKFELAVDAVHRKASEPAGGPRREDIVDTMVFKPSDVMLVHFRNVDFNYATKDKFTDSAIAMNSKVNGEHKEKVLQRWEGGDSNSDDYDLESDMSNGWDPNEMFKFNEENYGVKTTYDSSLSSYTVPLEKDNSEEFRQRELRAAQLAREIESSPQYRLRIAMENDDGRTEEEKHSAVQRQGSGRESPSLASREGKYIPLPQRVREGPRGGVRCSSSRGGRPGLSSLPPRGPHHLDNSSPGPGSEARGINGGPSRMSPKAQRPLRGAKTLSSPSNRPSGETSVPPPPAVGRMYPPRSPKSAAPAPISASCPEPPIGSAVPTSSASIPVTSSVSDPGVGSISPASPKISLAPTDVKELSTKEPGRTLEPQELARIAGKVPGLQNEQKRFQLEELRKFGAQFKLQPSSSPENSLDPFPPRILKEEPKGKEKEVDGLLTSEPMGSPVSSKTESVSDKEDKPPLAPSGGTEGPEQPPPPCPSQTGSPPVGLIKGEDKDEGPVAEQVKKSTLNPNAKEFNPTKPLLSVNKSTSTPTSPGPRTHSTPSIPVLTAGQSGLYSPQYISYIPQIHMGPAVQAPQMYPYPVSNSVPGQQGKYRGAKGSLPPQRSDQHQPASAPPMMQAAAAAGPPLVAATPYSSYIPYNPQQFPGQPAMMQPMAHYPSQPVFAPMLQSNPRMLTSGSHPQAIVSSSTPQYPSAEQPTPQALYATVHQSYPHHATQLHAHQPQPATTPTGSQPQSQHAAPSPVQHQAGQAPHLGSGQPQQNLYHPGALTGTPPSLPPGPSAQSPQSSFPQPAAVYAIHHQQLPHGFTNMAHVTQAHVQTGITAAPPPHPGAPHPPQVMLLHPPQSHGGPPQGAVPQSGVPALSASTPSPYPYIGHPQGEQPGQAPGFPGGADDRIREFSLAGGIWHGRAEGLQVGQDARVLGGE
With B1, the binding result in assay [1] and in assay [2] was “binds” each time.

B2: GLYR1 (protein, UniProt Q49A26 1-553)
chain: MAAVSLRLGDLVWGKLGRYPPWPGKIVNPPKDLKKPRGKKCFFVKFFGTEDHAWIKVEQLKPYHAHKEEMIKINKGKRFQQAVDAVEEFLRRAKGKDQTSSHNSSDDKNRRNSSEERSRPNSGDEKRKLSLSEGKVKKNMGEGKKRVSSGSSERGSKSPLKRAQEQSPRKRGRPPKDEKDLTIPESSTVKGMMAGPMAAFKWQPTASEPVKDADPHFHHFLLSQTEKPAVCYQAITKKLKICEEETGSTSIQAADSTAVNGSITPTDKKIGFLGLGLMGSGIVSNLLKMGHTVTVWNRTAEKCDLFIQEGARLGRTPAEVVSTCDITFACVSDPKAAKDLVLGPSGVLQGIRPGKCYVDMSTVDADTVTELAQVIVSRGGRFLEAPVSGNQQLSNDGMLVILAAGDRGLYEDCSSCFQAMGKTSFFLGEVGNAAKMMLIVNMVQGSFMATIAEGLTLAQVTGQSQQTLLDILNQGQLASIFLDQKCQNILQGNFKPDFYLKYIQKDLRLAIALGDAVNHPTPMAAAANEVYKRAKALDQSDNDMSAVYRAYIH
For B2, the binding result in assay [1] and in assay [2] was “binds” each time.

B3: HNRNPA0 (protein, UniProt Q13151 1-305)
chain: MENSQLCKLFIGGLNVQTSESGLRGHFEAFGTLTDCVVVVNPQTKRSRCFGFVTYSNVEEADAAMAASPHAVDGNTVELKRAVSREDSARPGAHAKVKKLFVGGLKGDVAEGDLIEHFSQFGTVEKAEIIADKQSGKKRGFGFVYFQNHDAADKAAVVKFHPIQGHRVEVKKAVPKEDIYSGGGGGGSRSSRGGRGGRGRGGGRDQNGLSKGGGGGYNSYGGYGGGGGGGYNAYGGGGGGSSYGGSDYGNGFGGFGSYSQHQSSYGPMKSGGGGGGGGSSWGGRSNSGPYRGGYGGGGGYGGSSF
As to B3, the binding entry in assay [1] and in assay [2] was “binds” in each case.

B4: SNW1 (protein, UniProt Q13573 1-536)
chain: MALTSFLPAPTQLSQDQLEAEEKARSQRSRQTSLVSSRREPPPYGYRKGWIPRLLEDFGDGGAFPEIHVAQYPLDMGRKKKMSNALAIQVDSEGKIKYDAIARQGQSKDKVIYSKYTDLVPKEVMNADDPDLQRPDEEAIKEITEKTRVALEKSVSQKVAAAMPVRAADKLAPAQYIRYTPSQQGVAFNSGAKQRVIRMVEMQKDPMEPPRFKINKKIPRGPPSPPAPVMHSPSRKMTVKEQQEWKIPPCISNWKNAKGYTIPLDKRLAADGRGLQTVHINENFAKLAEALYIADRKAREAVEMRAQVERKMAQKEKEKHEEKLREMAQKARERRAGIKTHVEKEDGEARERDEIRHDRRKERQHDRNLSRAAPDKRSKLQRNENRDISEVIALGVPNPRTSNEVQYDQRLFNQSKGMDSGFAGGEDEIYNVYDQAWRGGKDMAQSIYRPSKNLDKDMYGDDLEARIKTNRFVPDKEFSGSDRRQRGREGPVQFEEDPFGLDKFLEEAKQHGGSKRPSDSSRPKEHEHEGKKRRKE
With B4, the binding result in assay [1] and in assay [2] was “binds” each time.

B5: UPF1 (protein, UniProt Q92900 1-1129)
chain: MSVEAYGPSSQTLTFLDTEEAELLGADTQGSEFEFTDFTLPSQTQTPPGGPGGPGGGGAGGPGGAGAGAAAGQLDAQVGPEGILQNGAVDDSVAKTSQLLAELNFEEDEEDTYYTKDLPIHACSYCGIHDPACVVYCNTSKKWFCNGRGNTSGSHIVNHLVRAKCKEVTLHKDGPLGETVLECYNCGCRNVFLLGFIPAKADSVVVLLCRQPCASQSSLKDINWDSSQWQPLIQDRCFLSWLVKIPSEQEQLRARQITAQQINKLEELWKENPSATLEDLEKPGVDEEPQHVLLRYEDAYQYQNIFGPLVKLEADYDKKLKESQTQDNITVRWDLGLNKKRIAYFTLPKTDSGNEDLVIIWLRDMRLMQGDEICLRYKGDLAPLWKGIGHVIKVPDNYGDEIAIELRSSVGAPVEVTHNFQVDFVWKSTSFDRMQSALKTFAVDETSVSGYIYHKLLGHEVEDVIIKCQLPKRFTAQGLPDLNHSQVYAVKTVLQRPLSLIQGPPGTGKTVTSATIVYHLARQGNGPVLVCAPSNIAVDQLTEKIHQTGLKVVRLCAKSREAIDSPVSFLALHNQIRNMDSMPELQKLQQLKDETGELSSADEKRYRALKRTAERELLMNADVICCTCVGAGDPRLAKMQFRSILIDESTQATEPECMVPVVLGAKQLILVGDHCQLGPVVMCKKAAKAGLSQSLFERLVVLGIRPIRLQVQYRMHPALSAFPSNIFYEGSLQNGVTAADRVKKGFDFQWPQPDKPMFFYVTQGQEEIASSGTSYLNRTEAANVEKITTKLLKAGAKPDQIGIITPYEGQRSYLVQYMQFSGSLHTKLYQEVEIASVDAFQGREKDFIILSCVRANEHQGIGFLNDPRRLNVALTRARYGVIIVGNPKALSKQPLWNHLLNYYKEQKVLVEGPLNNLRESLMQFSKPRKLVNTINPGARFMTTAMYDAREAIIPGSVYDRSSQGRPSSMYFQTHDQIGMISAGPSHVAAMNIPIPFNLVMPPMPPPGYFGQANGPAAGRGTPKGKTGRGGRQKNRFGLPGPSQTNLPNSQASQDVASQPFSQGALTQGYISMSQPSQMSQPGLSQPELSQDSYLGDEFKSQIDVALSQDSTYQGERAYQHGGVTGLSQY
In the case of B5, the binding result in assay [1] and in assay [2] was “binds” throughout.
